Data taken from publication PMC5556019, “Targeting Apolipoprotein E/Amyloid β Binding by Peptoid CPO_Aβ17-21 P Ameliorates Alzheimer’s Disease Related Pathology and Cognitive Decline” (Scientific Reports, 2017).
Numbered stars: 1 amine (or outer) side, 2 acyl side, 3 side chain; on linkers, the order of the positions; unused ones are H or OH. Bridge positions count the residues as written; N and C are the ends. Square brackets hold non-standard residues; d marks the D form. Peptide text beside a SMILES is read from it. ξ: configuration not given here. N(CH2CH2CO)Gly = O=C(CN(CCC(=O)[*:3])[*:1])[*:2]; Nphe = O=C(O)CNCc1ccccc1; Nleu = CC(C)CNCC(=O)O; ξP = O=C(O)C1CCCN1; Sar = CNCC(=O)O

System: APP/PS1 Tg mice
Test: Sensorimotor tests (rotarod, traverse beam, locomotor activity)
Format: in vivo
Conditions: 0.2 mg per mouse i.p. twice weekly for 4 months; p > 0.05

CC(C)CN1CC(=O)N2CCCC2C(=O)N(Cc2ccccc2)CC(=O)N(Cc2ccccc2)CC(=O)N(C)CC(=O)N(CC(N)=O)CCC1=O (stereo not drawn) [CPO_Aβ17-21 P] ([Nleu][ξP][Nphe][Nphe][Sar][N(CH2CH2CO)Gly]-NH2; lactam N-6)
no significant differences: Open field: distance traveled, resting time, maximum velocity, average speed, treated versus vehicle | Rotarod, treated versus vehicle | Traverse beam, treated versus vehicle
